“And” between values parts separate entries of the source, which are not always exact repeats. Equal values may be shown once. The inconclusive results got no clear call from the source; some entries with a clear call stand among them for comparison. Where the call is inconclusive, the potency comes from a doubtful curve fit. Some compounds were tested as several samples or in several runs, with calls that do not always agree. The source made the active and inactive calls. Calls follow the shape of the full dose curve.
Assay: Nuclear factor erythroid 2-related factor 2/antioxidant responsive element (Nrf2/ARE) small molecule agonists: luciferase reporter gene qHTS assay in human keratinocytes (AID 1919969); also: nearly all actives have a fitted effect of over 35% in size
Conditions: KeratinoSens HaCaT ARE-luciferase, luminescence, 24 h; series mostly up to 92.4 µM
From the text: National Center for Advancing Translational Sciences [NCATS]
Division of Preclinical Innovation [DPI]
U.S. Environmental Protection Agency [EPA]
National Institutes of Environmental Health Sciences [NIEHS]
National Toxicology Program [NTP]
U.S. Food and Drug Administration [FDA]
Oxidative stress has been implicated in the pathogenesis of a variety of diseases ranging from cancer to neurodegeneration. The antioxidant response element (ARE) signaling pathway plays an important role in the amelioration of oxidative stress. The KeratinoSens (Givaudan, Switzerland) is an in vitro test method which quantifies luciferase induction as a measure of activation of Keap1-Nrf2-antioxidationt/electrophile response element (ARE) dependant pathway in HaCaT human keratinocytes stably transfected with a selectable plasmid. The KeratinoSens assay is a cell-based assay with a reporter cell line to detect potential skin sensitizers by their ability to induce the Nrf2/ARE-response. The activation of the report gene under culture conditions can be detected by ONE-Glo Luciferase Assay System (Promega, Madison, WI). This cell line has been used to screen the Tox21 10K compound library to identify agonists that induce oxidative stress. The cytotoxicity of the Tox21 compound library against the KS-ARE cell line was tested in parallel by measuring the cell viability using CellTiter- Fluor assay system (Promega, Madison, WI) in the same wells.
HaCaT derived cell line KeratinoSens were dispensed at 1,500 cells/5uL/well in 1536-well white wall/solid bottom plates using a Multidrop Combi (ThermoFisher Scientific, Waltham, MA) dispenser. After the assay plates were incubated at 37 C/5% CO2 for 5 h, 23 nL of compounds dissolved in DMSO, positive controls or DMSO only was transferred to the assay plate by a pintool workstation (Kalypsys, San Diego, CA). The plates were incubated at 37 C/5% CO2 for 23 h, followed by addition of 1uL/well of CellTiter-Fluor reagent into the assay plates using a Flying Reagent Dispenser (Aurora Discovery, San Diego, CA) for cell viability readout that measures cytotoxicity. After 1 h incubation at 37 C/5% CO2 the fluorescence intensity was measured using a ViewLux (PerkinElmer, Shelton, CT) plate reader. Then 4uL/well of One-Glo were added using a Flying Reagent Dispenser. After the plates were incubated at room temperature for 30 min, the luminescence intensity in the assay plates was measured using ViewLux plate reader.
Potency is read from the fitted curve at half-maximal effect.

| Compound | Potency |
| --- | --- |
| O=C(Nc1ccc(Oc2ccc(Cl)cc2)c(Cl)c1)c1cc(I)cc(I)c1O | inconclusive: 29.8 µM [activator] |
| CN(C)c1ccc(SC#N)cc1 | active: 24.3 µM |
| CC(C)Cc1ccc(CC(=O)O)cc1 | inconclusive: 33.5 µM [activator, single point] |
| Nc1ccc([N+](=O)[O-])cc1O | inconclusive: 68.6 µM [activator, single point] |
| CC1(C)S[C@@H]2[C@H](NC(=O)[C@H](N)c3ccccc3)C(=O)N2[C@H]1C(=O)O | inconclusive: 68.6 µM [activator, single point] |
| CCc1oc2ccccc2c1C(=O)c1cc(I)c(O)c(I)c1 | inconclusive: 33.5 µM [activator, single point] |
| O=c1n(CC2CO2)c(=O)n(CC2CO2)c(=O)n1CC1CO1 (stereo not given) | active: 60.8 µM and active: 68.6 µM |
| c1cc(C(c2ccc(OCC3CO3)cc2)c2ccc(OCC3CO3)cc2)ccc1OCC1CO1 (stereo not given) | inconclusive: 15.4 µM [activator] |
| CCOC(=O)CC(=O)OCC | inactive |
| FC(F)(F)c1ccccc1Cl | inactive |
| Nc1cccc2c(N)cccc12 | active: 13.7 µM |
| NCCS(=O)(=O)O | inactive |
| CCCCCCCCCCCCCCCO | active: 54.9 µM |
| O=c1[nH]cnc2[nH]ncc12 | inactive |
| COC(=O)c1ccc(O)cc1 | inactive |
| COC(=O)CC(C)=O | inactive |
| CC(C)(C)CC(C)(C)c1ccc(O)c(-n2nc3ccccc3n2)c1 | inconclusive: 15.4 µM [activator, single point] and inconclusive: 13.3 µM [activator, single point] |
| O=C(/C=C/c1ccccc1)OCc1ccccc1 | inconclusive: 48.6 µM [activator, partial curve] |
| CC(=O)c1ccc2ccccc2c1 | inactive |
| COC(OC)(C(=O)c1ccccc1)c1ccccc1 | inconclusive: 76.9 µM [activator, single point] |

A second format for some results above:
Compound	Potency
CC1(C)S[C@@H]2[C@H](NC(=O)[C@H](N)c3ccccc3)C(=O)N2[C@H]1C(=O)O	inconclusive: 68.6 µM [activator, single point]
CC(=O)c1ccc2ccccc2c1	inactive

The results go on:

| Compound | Potency |
| --- | --- |
| CCCCCCCCCc1ccc(OCCOCCO)cc1 | inconclusive: 25.6 µM [activator, single point] |
| O=C(Nc1ccc(C(=O)O)c(O)c1)c1ccccc1 | inconclusive: 29.8 µM [activator, partial curve, poor fit] |
| CC1CCCCC1 | inactive |
| Cc1ccc(C(C)(C)C)c(O)c1 | inconclusive: 47 µM [activator, partial curve] and inconclusive: 68.6 µM [activator, single point] |
| Cc1cc(O)c(Cl)c(C)c1Cl | inconclusive: 68.6 µM [activator, partial curve, poor fit] |
| CCC(=O)/C=C/c1ccc(OC)cc1 | inconclusive: 68.6 µM [activator, single point] |
| CC(C)c1ccc2sc3ccccc3c(=O)c2c1 | active: 68.6 µM |
| CN(CCCN1c2ccccc2CCc2ccccc21)CC(=O)c1ccc(Cl)cc1 | inconclusive: 29.8 µM [activator] |
| Nc1nc(CC(=O)O)cs1 | inactive |
| O=C(C(=O)c1ccc(Br)cc1)c1ccc(Br)cc1 | inconclusive: 17 µM [activator, single point] |
| COc1cc(/C=C/c2ccccc2)oc(=O)c1 | inconclusive: 3.17 µM [activator, partial curve] |
| C1=CC2C3C=CC(C3)C2C1 (stereo not given) | inconclusive: 67.3 µM [activator, single point] |
| Cc1c[nH]c(=O)[nH]c1=O | inconclusive: 77 µM [activator, partial curve, poor fit] |
| C[C@]12C(=O)OC(=O)[C@H]1[C@H]1C=C[C@@H]2C1 | inconclusive: 69.1 µM [activator, single point] |
| CC(=O)OC(C)OC(C)=O | inconclusive: 28.1 µM [activator, partial curve, poor fit] |
| CCN(Cc1cccc(S(=O)(=O)O)c1)c1ccc(C(=C2C=CC(=[N+](CC)Cc3cccc(S(=O)(=O)[O-])c3)C=C2)c2ccccc2)cc1 | inconclusive: 54 µM [activator, single point] |
| Cc1ncc[nH]1 | inactive |
| CCC(C)Nc1ccc(NC(C)CC)cc1 (stereo not given) | inconclusive: 2.48 µM [activator, single point] |
| COC(=O)/C=C(\C)CCC=C(C)C | inconclusive: 68.6 µM [activator, single point] |
| O=C(Nc1ccccc1SSc1ccccc1NC(=O)c1ccccc1)c1ccccc1 | active: 4.88 µM and active: 6.11 µM |
